Drawing on US20220241330A1, this text covers binding for three molecules.

No constants are given. Whether binding was seen depends on the method and setting.

Experiment [1] concerns the target HEK293-6E/domain4. Briefly: flow cytometry on HEK293-6E cells expressing mouse CD4 with human domain 4, isotype control as reference. On the technique in general: A flow cytometer gives signals particle by particle.
Experiment [2] has as its target HEK293-6E/domain3. Briefly: flow cytometry on HEK293-6E cells expressing mouse CD4 with human domain 3, isotype control as reference.
For experiment [3], the target named is HEK293-6E/domain5. Briefly: flow cytometry on HEK293-6E cells expressing mouse CD4 with human domain 5, isotype control as reference.

B1: Tregalizumab (antibody, V domains shown)
VH: EEQLVESGGGLVKPGGSLRLSCAASGFSFSDCRMYWLRQAPGKGLEWIGVISVKSENYGANYAESVRGRFTISRDDSKNTVYLQMNSLKTEDTAVYYCSASYYRYDVGAWFAYWGQGTLVTVSS
VL: DIVMTQSPDSLAVSLGERATINCRASKSVSTSGYSYIYWYQQKPGQPPKLLIYLASILESGVPDRFSGSGSGTDFTLTISSLQAEDVAVYYCQHSRELPWTFGQGTKVEIKR
With B1, the binding entry in experiment [1], in experiment [2] and in experiment [3] was “no binding” in each case.

B2: Ibalizumab (antibody, V domains shown)
VH: QVQLQQSGPEVVKPGASVKMSCKASGYTFTSYVIHWVRQKPGQGLDWIGYINPYNDGTDYDEKFKGKATLTSDTSTSTAYMELSSLRSEDTAVYYCAREKDNYATGAWFAYWGQGTLVTVSS
VL: DIVMTQSPDSLAVSLGERVTMNCKSSQSLLYSTNQKNYLAWYQQKPGQSPKLLIYWASTRESGVPDRFSGSGSGTDFTLTISSVQAEDVAVYYCQQYYSYRTFGGGTKLEIKR
With B2, the binding entry in experiment [2] and in experiment [3] was “no binding” in each case.

B3: Zanolimumab (antibody, V domains shown)
VH: QVQLQQWGAGLLKPSETLSLTCAVYGGSFSGYYWSWIRQPPGKGLEWIGEINHSGSTNYNPSLKSRVTISVDTSKNQFSLKLSSVTAADTAVYYCARVINWFDPWGQGTLVT
VL: DIQMTQSPSSVSASVGDRVTITCRASQDISSWLAWYQHKPGKAPKLLIYAASSLQSGVPSRFSGSGSGTDFTLTISSLQPEDFATYYCQQANSFPYTFGQGTKLEIK
For B3, the binding entry in experiment [1], in experiment [2] and in experiment [3] was “no binding” each time.
